## Screening data, single-dose tests

Sequences of proteins named here, by UniProt entry; tags and fusion partners are left off. Residues count along the entry.
UniProt P9WNZ1, whole entry: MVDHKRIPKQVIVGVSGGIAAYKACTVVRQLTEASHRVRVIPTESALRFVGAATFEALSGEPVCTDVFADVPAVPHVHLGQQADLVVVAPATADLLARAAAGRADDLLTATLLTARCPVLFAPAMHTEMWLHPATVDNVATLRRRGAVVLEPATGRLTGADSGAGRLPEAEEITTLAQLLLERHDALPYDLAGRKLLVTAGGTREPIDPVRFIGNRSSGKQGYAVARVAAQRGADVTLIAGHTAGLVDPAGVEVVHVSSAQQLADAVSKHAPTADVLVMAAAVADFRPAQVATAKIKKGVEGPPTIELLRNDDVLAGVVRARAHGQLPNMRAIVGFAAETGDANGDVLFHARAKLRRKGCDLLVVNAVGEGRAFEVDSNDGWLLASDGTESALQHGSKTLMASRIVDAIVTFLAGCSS
UniProt I6X8D2, whole entry: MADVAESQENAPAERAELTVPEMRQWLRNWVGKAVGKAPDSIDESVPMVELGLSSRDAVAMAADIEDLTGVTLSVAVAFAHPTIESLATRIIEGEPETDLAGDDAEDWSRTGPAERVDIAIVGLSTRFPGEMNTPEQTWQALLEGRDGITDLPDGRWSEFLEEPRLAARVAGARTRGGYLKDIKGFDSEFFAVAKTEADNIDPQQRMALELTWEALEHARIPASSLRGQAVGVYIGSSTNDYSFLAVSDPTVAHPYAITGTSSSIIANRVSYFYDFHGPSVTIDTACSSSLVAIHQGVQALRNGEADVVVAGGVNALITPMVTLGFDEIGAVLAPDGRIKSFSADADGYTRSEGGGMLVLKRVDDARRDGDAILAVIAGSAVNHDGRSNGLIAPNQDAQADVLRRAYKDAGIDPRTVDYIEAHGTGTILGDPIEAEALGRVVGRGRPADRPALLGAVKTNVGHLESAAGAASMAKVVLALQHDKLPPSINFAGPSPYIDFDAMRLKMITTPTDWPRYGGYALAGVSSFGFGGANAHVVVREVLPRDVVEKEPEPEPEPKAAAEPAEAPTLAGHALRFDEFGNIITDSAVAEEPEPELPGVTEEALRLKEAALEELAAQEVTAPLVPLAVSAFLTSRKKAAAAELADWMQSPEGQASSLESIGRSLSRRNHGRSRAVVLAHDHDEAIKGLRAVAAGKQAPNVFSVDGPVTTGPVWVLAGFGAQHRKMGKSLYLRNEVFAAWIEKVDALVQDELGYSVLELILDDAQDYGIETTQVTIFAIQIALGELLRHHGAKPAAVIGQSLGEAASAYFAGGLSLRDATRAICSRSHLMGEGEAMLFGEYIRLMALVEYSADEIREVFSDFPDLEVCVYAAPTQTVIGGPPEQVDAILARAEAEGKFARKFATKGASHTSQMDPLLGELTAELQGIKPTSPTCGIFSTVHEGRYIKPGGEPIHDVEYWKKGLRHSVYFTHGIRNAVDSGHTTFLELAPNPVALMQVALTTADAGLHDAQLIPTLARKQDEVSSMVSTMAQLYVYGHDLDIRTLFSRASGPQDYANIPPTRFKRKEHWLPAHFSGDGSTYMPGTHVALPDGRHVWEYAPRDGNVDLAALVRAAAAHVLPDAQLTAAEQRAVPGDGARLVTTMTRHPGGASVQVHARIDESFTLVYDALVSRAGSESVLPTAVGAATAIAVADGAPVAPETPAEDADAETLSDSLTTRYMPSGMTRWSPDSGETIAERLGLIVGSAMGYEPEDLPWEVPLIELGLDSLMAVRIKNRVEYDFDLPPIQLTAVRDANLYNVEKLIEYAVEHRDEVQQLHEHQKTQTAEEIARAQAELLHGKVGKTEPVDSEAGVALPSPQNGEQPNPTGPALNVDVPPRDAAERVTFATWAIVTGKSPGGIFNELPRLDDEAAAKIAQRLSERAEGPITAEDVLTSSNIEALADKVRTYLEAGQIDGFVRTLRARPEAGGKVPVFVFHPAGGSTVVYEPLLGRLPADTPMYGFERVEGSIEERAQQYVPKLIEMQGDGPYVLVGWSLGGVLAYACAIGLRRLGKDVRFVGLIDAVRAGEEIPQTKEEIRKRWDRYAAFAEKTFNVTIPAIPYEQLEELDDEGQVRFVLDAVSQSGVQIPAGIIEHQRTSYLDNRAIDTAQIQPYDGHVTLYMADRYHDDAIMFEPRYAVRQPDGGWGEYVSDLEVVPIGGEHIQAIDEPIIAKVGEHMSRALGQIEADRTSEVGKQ
UniProt P9WPC5, whole entry: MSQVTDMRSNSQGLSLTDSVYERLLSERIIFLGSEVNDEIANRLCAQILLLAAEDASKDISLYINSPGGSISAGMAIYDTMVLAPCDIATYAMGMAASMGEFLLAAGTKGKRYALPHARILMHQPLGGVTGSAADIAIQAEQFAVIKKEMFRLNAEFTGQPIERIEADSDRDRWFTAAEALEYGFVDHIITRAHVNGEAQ
UniProt P9WPC3, whole entry partner: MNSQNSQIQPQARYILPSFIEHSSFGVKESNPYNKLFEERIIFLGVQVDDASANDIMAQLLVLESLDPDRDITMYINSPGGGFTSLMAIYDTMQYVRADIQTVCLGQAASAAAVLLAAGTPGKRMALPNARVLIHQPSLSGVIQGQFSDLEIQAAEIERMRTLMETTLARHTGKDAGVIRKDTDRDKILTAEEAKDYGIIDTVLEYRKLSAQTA
UniProt Q4DA54, 1-478: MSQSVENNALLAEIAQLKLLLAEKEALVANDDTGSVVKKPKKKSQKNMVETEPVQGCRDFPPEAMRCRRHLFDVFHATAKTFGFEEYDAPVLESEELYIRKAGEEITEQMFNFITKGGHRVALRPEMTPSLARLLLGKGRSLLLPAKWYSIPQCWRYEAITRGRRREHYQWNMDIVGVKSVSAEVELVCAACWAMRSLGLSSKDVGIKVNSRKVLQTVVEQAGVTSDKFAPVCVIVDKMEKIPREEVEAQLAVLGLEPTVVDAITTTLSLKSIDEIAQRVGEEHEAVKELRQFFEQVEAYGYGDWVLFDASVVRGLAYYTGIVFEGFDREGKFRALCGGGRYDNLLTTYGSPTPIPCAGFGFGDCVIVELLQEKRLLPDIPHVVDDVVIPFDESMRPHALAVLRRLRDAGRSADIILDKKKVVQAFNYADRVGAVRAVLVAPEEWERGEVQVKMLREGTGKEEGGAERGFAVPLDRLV

Source: ChEMBL document CHEMBL3988442, “University of Dundee, Small-Polar-MMV Screening Library” (2021).

CoaBC: 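Coenzyme A biosynthesis protein CoaBC, Mycobacterium tuberculosis (UniProt P9WNZ1). Enzyme assay of CoaBC with a phosphate dye (Biomol Green) read at 650 nm. Concentration: 30 µM. Higher reads as stronger inhibition, judged from the few compounds that gave an IC50. Most strong results did not repeat in a second test. About 67,000 compounds were tested under these conditions; 0.06% (about 40) showed 50% or more at least once.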
Leishmania in macrophages: 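Cell assay of Leishmania donovani living inside macrophages; the read-out is not stated. Tested at 30 µM. Higher reads as stronger inhibition (inferred: compounds with an IC50 in retests scored well above the rest). Size under these conditions: about 69,000 compounds, about 1,000 of them at 50% or above in at least one test.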
Pks13 thioesterase: 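Polyketide synthase Pks13, Mycobacterium tuberculosis (UniProt I6X8D2). Enzyme assay of the thioesterase domain of polyketide synthase 13; the read-out is not stated. Compounds at 30 µM. Higher reads as stronger inhibition (inferred from which compounds were picked for retests). About 67,000 compounds were tested under these conditions; 0.46% (about 300) showed 50% or more at least once.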
ClpP1P2: 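Protease assay of ClpP1P2, read by the AMC dye that it sets free. Target: ClpP1P2, Mycobacterium tuberculosis (UniProt P9WPC5 and UniProt P9WPC3). Concentration: 50 µM. Direction is inferred from only a few compounds that gave an IC50; most scored high, so higher reads as stronger inhibition. Most other retested compounds had strongly negative values. Of about 69,000 compounds tested this way, about 10 (0.015%) reached 50% or more in at least one test.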
TcHisRS: 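Enzyme assay of histidyl-tRNA synthetase; the read-out is not stated. Target: Histidine-tRNA ligase, Trypanosoma cruzi CL Brener (UniProt Q4DA54). Tested at 30 µM. The record gives no direction; compounds that gave an IC50 in retests scored well above the rest, so higher reads as stronger inhibition. About 69,000 compounds were tested under these conditions; 0.045% (about 31) showed 50% or more at least once.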

The filed quantity is “Percent Effect” (%). How 0% and 100% were set is not recorded. Most values in the screen are low, and negative values occur. Compounds were drawn at random from those tested, without regard to their results. Two or more numbers in one place are separate tests of the same structure; such repeats can differ widely. A dash means the value is not listed here; it may have been measured.

{"compound": "[H][C@@]12C[C@H](C)O[C@@]1([H])CCN(S(=O)(=O)c1ccc(F)cc1)C2", "Leishmania in macrophages": -5.608}
{"compound": "Cc1noc(C)c1CN1CCc2cnn(C)c2C1COCC1CC1.O=C(O)C(F)(F)F.O=C(O)C(F)(F)F", "stereo": "stereo not drawn", "Leishmania in macrophages": 9.221}
{"compound": "CN(CC(O)C(F)(F)F)C(=O)Nc1cccc(N2CCCC2)c1", "stereo": "stereo not drawn", "CoaBC": -2.675, "Leishmania in macrophages": -22.79, "Pks13 thioesterase": -30.14, "ClpP1P2": -2.555, "TcHisRS": 0.5525}
{"compound": "CCO[C@@H]1CC[C@H]2[C@H]1OCCN2Cc1ccoc1", "CoaBC": 0.7407, "Pks13 thioesterase": -6.108, "ClpP1P2": -6.401, "TcHisRS": 6.349}
{"compound": "CC(C)n1cnnc1CNC(=O)c1cnn(-c2ccccc2)c1", "CoaBC": 0, "Leishmania in macrophages": 5.112, "Pks13 thioesterase": 7.552, "ClpP1P2": -7.709, "TcHisRS": -0.5525}
{"compound": "[H][C@]12CCN(C(=O)COC)[C@@]1([H])CC[C@H](COCc1csc(C)n1)O2", "Leishmania in macrophages": -14.8}
{"compound": "CCNC(=O)NC(=O)CSC(C)c1ccccc1F", "stereo": "stereo not drawn", "CoaBC": 5.804, "Leishmania in macrophages": 24.27, "Pks13 thioesterase": -15.19, "ClpP1P2": -10.14, "TcHisRS": 2.905}
{"compound": "Cn1cc(CN2CC[C@H]3C[C@H](c4nc(C5CC5)cs4)O[C@@H]3C2)cn1", "CoaBC": 4.545, "Pks13 thioesterase": -9.958, "ClpP1P2": 12.33, "TcHisRS": 1.674}
{"compound": "CC1CCN(S(=O)(=O)N2CCC(Oc3cnccn3)CC2)CC1", "CoaBC": 2.206, "Leishmania in macrophages": -0.719, "Pks13 thioesterase": 7.157, "ClpP1P2": -2.552, "TcHisRS": 7.447}
{"compound": "COc1ccc(C(=O)COc2coc(CN3CCSCC3)cc2=O)cc1", "CoaBC": 4.304, "Leishmania in macrophages": "9.086 and 0.7349", "Pks13 thioesterase": -1.423, "ClpP1P2": -7.906, "TcHisRS": 3.659}
{"compound": "COc1cc(CO)c(OC)c2c1OCO2", "CoaBC": 9.208, "Leishmania in macrophages": 16.65, "Pks13 thioesterase": -15.28, "ClpP1P2": 3.839, "TcHisRS": 2.273}
{"compound": "Cc1cnc(N2CCN(C)c3ncccc3C2)nc1.O=C(O)C(F)(F)F", "Leishmania in macrophages": 15.07}
{"compound": "COCCn1cnnc1CNc1cc(C)nc2c(C)c(C)nn12", "CoaBC": -0.2049, "Leishmania in macrophages": -6.24, "Pks13 thioesterase": -4.01, "ClpP1P2": -0.08241, "TcHisRS": -11.7}
{"compound": "O=C(O)C(F)(F)F.[H][C@]12CC[C@@]3(N=C(C)N(CC(C)C)C3=O)[C@@]1([H])CNC2", "Leishmania in macrophages": -56.61}
{"compound": "Cc1cnn(CCNCc2ccccc2OCc2ccccn2)c1", "CoaBC": 8.779, "Leishmania in macrophages": 10.3, "Pks13 thioesterase": -23.17, "ClpP1P2": -34.97, "TcHisRS": 4.507}
{"compound": "COc1ncccc1-c1cc(C(N)=O)ccn1", "CoaBC": 0.1227, "Leishmania in macrophages": 5.135, "Pks13 thioesterase": -11.92, "ClpP1P2": -2.701, "TcHisRS": 1.235}
{"compound": "Cc1cnn(CCNCC(O)COc2c(C)ccc(C)c2C)c1", "stereo": "stereo not drawn", "CoaBC": -0.2571, "Leishmania in macrophages": 36.51, "Pks13 thioesterase": -27.59, "ClpP1P2": -4.343, "TcHisRS": 3.008}
{"compound": "CN(C)CCNC(=O)c1cc2n(n1)CCN(C(=O)c1ccco1)C2", "CoaBC": 3.273, "Leishmania in macrophages": 20.29, "Pks13 thioesterase": -36.87, "ClpP1P2": -11, "TcHisRS": 3.061}
{"compound": "Cc1nc(N2CCC(O)(c3ccc(F)cc3)CC2)c2c(C)nn(C)c2n1", "CoaBC": 4.665, "Leishmania in macrophages": 49.38, "Pks13 thioesterase": 4.465, "ClpP1P2": -14.09, "TcHisRS": 3.863}
{"compound": "CCOc1ccc(CN(C)C(C)C(=O)Nc2cc(C)no2)cc1", "stereo": "stereo not drawn", "CoaBC": 13.84, "Leishmania in macrophages": 41.72, "Pks13 thioesterase": -21.85, "ClpP1P2": 7.4, "TcHisRS": 0.5525}
{"compound": "Cc1nnc([C@@H]2C[C@H]3CN(C(=O)c4sccc4C)C[C@H]3O2)[nH]1", "Pks13 thioesterase": -38.93, "ClpP1P2": 2.274, "TcHisRS": 3.797}
{"compound": "O=C(CN1CCc2c(ncn2C2CC2)C1)NC1CCN(C2CC2)CC1", "CoaBC": -5.898, "Leishmania in macrophages": 8.572, "Pks13 thioesterase": -29.35, "ClpP1P2": -10.54, "TcHisRS": 1.994}
{"compound": "COc1ccc(N2CCCC3(C2)CN(c2cccnc2)CCO3)cc1", "stereo": "stereo not drawn", "CoaBC": -7.536, "Pks13 thioesterase": -9.989, "ClpP1P2": -3.846, "TcHisRS": 19.54}
{"compound": "O=C(O)C(F)(F)F.O=C(O)C(F)(F)F.[H][C@@]12CN(Cc3ccco3)C[C@]1([H])[C@H](OC)CCN2Cc1ccoc1", "Leishmania in macrophages": -4.355}

The last 3 entries again:

compound,CoaBC,Leishmania in macrophages,Pks13 thioesterase,ClpP1P2,TcHisRS
O=C(CN1CCc2c(ncn2C2CC2)C1)NC1CCN(C2CC2)CC1,-5.898%,8.572%,-29.35%,-10.54%,1.994%
COc1ccc(N2CCCC3(C2)CN(c2cccnc2)CCO3)cc1 (stereo not drawn),-7.536%,-,-9.989%,-3.846%,19.54%
O=C(O)C(F)(F)F.O=C(O)C(F)(F)F.[H][C@@]12CN(Cc3ccco3)C[C@]1([H])[C@H](OC)CCN2Cc1ccoc1,-,-4.355%,-,-,-